These are literature values, as cited in PMC11915030 (ACS Pharmacology & Translational Science, 2025).

SMILES strings stand for the structures.

For the series the following is noted: morphine-metamizole PCA pump, 37 °C, after 7 days; cited from earlier work.

Turning to `CN1CC[C@]23c4c5ccc(O)c4O[C@H]2[C@@H](O)C=C[C@H]3[C@H]1C5` [morphine], the “concentration remaining, of initial concentration in the PCA pump” value is “approximately 72%”.
